According to PubChem BioAssay AID2417 (National Center for Advancing Translational Sciences (NCATS), 2010):
Out of some 140,000 compounds screened, about 4,300 (3.1%) were called active. Inconclusive means that the source gave no clear call. Such entries were picked first, then a sample of the others.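 How the source made its calls: active means readout at or below -70, meaning at least 70% loss of cells showing the perinucleolar compartment, a nuclear body marking cancer cells; inconclusive means readout between -30 and a set limit; inactive means the rest.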

Experiment: High Content Assay for Compounds that inhibit the Assembly of the Perinucleolar Compartment;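 further: plate controls were DMSO wells for no effect and camptothecin positive control wells for full effect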
Conditions: PC3M PTB-GFP, PNC prevalence imaging, 16 h; at 10 µM; stronger effect = lower value
Summary of the method: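 Read-out is percentage of cells bearing a perinucleolar compartment, from automated 20x imaging of fixed, Hoechst-stained PC3M PTB-GFP cells. Cells were seeded 4 h, then exposed 16 h to compound (23 nl of library stock) in duplicate plates.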

Compound	activity change (PNC), negative = inhibition
Cc1cccc(C)c1OP(N)(=O)OCC(F)(F)F (centres undefined)	inconclusive: -75.2%
CCC(C)n1c(O)c(/C=N/NC(=O)c2ccncc2)c(=O)[nH]c1=S (centres undefined)	inactive: 22.9%
COc1cc2c3cc1Oc1cc(ccc1O)C[C@@H]1c4c(cc(OC)c(O)c4Oc4ccc(cc4)C[C@H]3N(C)CC2)CCN1C	active: -97.1%
CC1C(c2cccs2)=[N+]([O-])C(C)(C(=O)c2cccs2)N1O (centres undefined)	inconclusive: -56.7%
CCC(=Nc1ccc(OC)cc1OC)c1c(O)[nH]c(=O)[nH]c1=O	active: -95.5%
CCOC(=O)C1=C(NC(=S)NC(=O)c2ccccc2)c2ccccc2CC12CCCC2	inactive: 63.6%
O=c1[nH]c(=O)n(Cc2ccccc2)c(O)c1C=NCCCO	inconclusive: -41.9%
OC1/C(=C/c2ccc(F)cc2)N2CCC1CC2 (centres undefined)	inactive: -21.9%
C/C(=N\Nc1ccccc1)c1c(O)n(C)c(=O)n(C)c1=O	inconclusive: -32.3%
CCCC(C)C1(CC)C(=O)NC(=Nc2ccc(OC)cc2)NC1=O (centres undefined)	inconclusive: -35.1%
c1ccc2c(CCNC3=NCCC3)c[nH]c2c1	active: -82.8%
COc1cccc(N2CCN(Cc3ccc(Cl)cc3)CC2)c1	inactive: 7.84%
Nc1ccccc1C(=O)c1ccccc1	inconclusive: -79.5%
O=C(NC1CC1)C1CSC(c2cccnc2)=N1 (centres undefined)	inconclusive: -45%
Cc1ccc(C(=O)C2CN3CCC2CC3)cc1 (centres undefined)	inactive: -27.5%
O=C1NC(=O)N(c2ccc(Cl)cc2)C(=O)/C1=C\c1ccc(Sc2nc3ccccc3[nH]2)o1	inactive: 18%
c1ccc(CCN2CCC(N3CCN(c4ccccc4)CC3)CC2)cc1	active: -100%
Clc1ccc(CSC(Cn2ccnc2)c2ccc(Cl)cc2Cl)cc1 (centres undefined)	inconclusive: -52.4%
CC(C)CCn1c(N)c(C(=O)NCc2cccs2)c2nc3ccccc3nc21	inactive: 34.7%
CCOC(=O)c1c(C)n(Cc2ccccc2)c2ccc(OCC(O)Cn3nc(C)cc3C)cc12 (centres undefined)	active: -80.4%
Cc1sc(-n2c(C)cc(C=C3C(=O)NC(=O)NC3=O)c2C)c(C#N)c1C	inactive: 23.5%
Cc1[nH]c2ccccc2c1/C=N/O	active: -85.9%
CP(C)(=O)CCC(=O)O	inconclusive: -55.9%

Compound	activity change (PNC), negative = inhibition
C1CNC2NCCNC2N1 (centres undefined)	active: -100%
CN(C)C(=O)Oc1ccc(OC(=O)N(C)C)cc1	inactive: 21.6%
CC1(O)C[C@]2(C)N(O)C3CCCC[C@@H]3N2O1 (some centres undefined)	inconclusive: -41%
Cc1ccc2c(c1)=C/C(=C\c1c(O)[nH]c(=S)[nH]c1=O)C(=O)N=2	inconclusive: -38.1%
CCC1(CC)C(=O)NC(=NCCc2c[nH]c3ccccc23)NC1=O	inconclusive: -64.8%
Cc1sc2c(c1C)C(c1cccs1)=NCC(=O)N2CC(=O)NCc1cccs1	inconclusive: -39.2%
CCN(CC)S(=O)(=O)c1cc(NC(=O)C(C)N2CC=C(c3ccccc3)CC2)ccc1C (centres undefined)	inconclusive: -44.9%
Cc1nn(Cc2ccccc2Cl)c(C)c1C(=O)OCC(=O)NC1CCS(=O)(=O)C1 (centres undefined)	inconclusive: -65.7%
O=P(Nc1cccnc1)(Oc1ccccc1)Oc1ccccc1	inconclusive: -74.2%
O=C1CN=C(c2ccccc2F)c2cc(Cl)ccc2N1	inactive: 3.58%
CCOC(=O)C(O)(c1ccc(N(CC)C(=O)OC)cc1)C(F)(F)F (centres undefined)	inconclusive: -46.2%
O=C(N/N=C/c1c(O)n(Cc2ccc(F)cc2)c(=O)[nH]c1=O)c1ccccc1O	inconclusive: -42.6%
CN1CCN(c2ccc(/C=C3\C(=O)NC(=S)N(c4cccc(Br)c4)C3=O)o2)CC1	inconclusive: -55%
O=C(Nc1cccc(C(F)(F)F)c1)c1cccn(Cc2ccc3c(c2)OC(F)(F)O3)c1=O	inconclusive: -40.8%
CCC/C(=N\O)c1c[nH]c2ccccc12	inconclusive: -47.5%
CCCc1[nH]nc2c1C1(C(=O)N(CC(N)=O)c3ccccc31)C(C(=O)OC)=C(N)O2 (centres undefined)	active: -91.1%
Cc1nn(Cc2ccccc2)c(C)c1C=C1C(=O)NC(=S)NC1=O	inconclusive: -50.8%
C=CCN1C(=O)C2(C(C(=O)OCC)=C(N)Oc3ccccc32)C2=C1CCCC2=O (centres undefined)	inconclusive: -34.5%
COc1ccc(OC)c(C2=NOC(C(=O)N3CCC4(CC3)OCCO4)C2)c1 (centres undefined)	inconclusive: -59.4%
CC/C(CC(c1ccccc1)c1c(O)c2ccccc2oc1=O)=N\NC(N)=S (centres undefined)	inactive: -17%
COc1ccc(C(=O)C(Cc2ccccc2)N(C)C)cc1 (centres undefined)	inconclusive: -39.1%
CCCC(C)n1[nH]c(=O)c2c1NC(=O)CSC2c1ccc(OC)cc1 (centres undefined)	inactive: 3.49%
Cc1c(N=Cc2c(O)n(CCc3ccc(F)cc3)c(=O)[nH]c2=O)c(=O)n(-c2ccccc2)n1C	inconclusive: -71.8%

No new results follow: entries from further up.
Compound	activity change (PNC), negative = inhibition
CCOC(=O)C(O)(c1ccc(N(CC)C(=O)OC)cc1)C(F)(F)F (centres undefined)	inconclusive: -46.2%
O=C(N/N=C/c1c(O)n(Cc2ccc(F)cc2)c(=O)[nH]c1=O)c1ccccc1O	inconclusive: -42.6%
CN1CCN(c2ccc(/C=C3\C(=O)NC(=S)N(c4cccc(Br)c4)C3=O)o2)CC1	inconclusive: -55%
O=C(Nc1cccc(C(F)(F)F)c1)c1cccn(Cc2ccc3c(c2)OC(F)(F)O3)c1=O	inconclusive: -40.8%

Continuation.

Compound	activity change (PNC), negative = inhibition
O=C(/C=C/c1ccccc1)c1c(O)n(CCc2ccccc2)c(=O)[nH]c1=O	inconclusive: -33.2%
Cc1cccn2c(NCC3CCCO3)c(C(C)C)nc12 (centres undefined)	active: -127%
Cc1ccc(S(=O)(=O)N2CCCC(C(=O)N3CCC4(CC3)OCCO4)C2)cc1 (centres undefined)	inconclusive: -56%
O=C(c1cc2c(s1)-c1ccccc1OC2)N1CCC2(CC1)OCCO2	inactive: -28%
Cc1ccc(N2C(=O)NC(=O)/C(=C\c3ccsc3)C2=O)cc1C	inconclusive: -42%
Oc1ccc(/C=N/NP(=S)(c2ccccc2)c2ccccc2)c(O)c1O	inactive: 37.6%
COc1cc2c(cc1OC)C(C(=O)NCCC(C)C)C1CCCCN1C2=O (centres undefined)	active: -119%
CN1C(=O)NC(=O)C2(Cc3ccccc3N3CCOCC32)C1=O (centres undefined)	inconclusive: -42.9%
O=c1[nH]c(=S)[nH]c(O)c1CN1CCCCC1	inconclusive: -37.1%
CC(C)[C@@]1(NC(=O)[C@@H]2C[C@@H]3c4cccc5[nH]cc(c45)C[C@H]3N(C)C2)O[C@@]2(O)[C@@H]3CCCN3C(=O)[C@H](Cc3ccccc3)N2C1=O	inactive: -5.78%
c1ccc(C(OCCN2CCNCC2)c2ccccc2)cc1	inconclusive: -51.1%
Cn1c(=O)cc(OCC(=O)N2CCC3(CC2)OCCO3)c2ccccc21	active: -95%
CCOC(=O)C(O)(c1ccc(NC(=O)c2ccco2)c(OC)c1)C(F)(F)F (centres undefined)	inconclusive: -36.4%
Cc1cccc(C2=NCC(=O)N(CC(=O)NCc3ccco3)c3sc4c(c32)CCCC4)c1	inconclusive: -67.8%
COc1ccc(OCC(=O)Nc2ccc(Cl)cc2C(=O)c2ccccc2)cc1	inconclusive: -55.9%
Cc1ccc2nc(N3CCC(C(=O)N4CCC5(CC4)OCCO5)CC3)sc2c1	inactive: 18.2%
CN1CCN(c2ccc([N+](=O)[O-])c(NCc3ccco3)c2)CC1	inactive: 57.1%
CC(C)CC12CN3CCN(CC(C3)C1O)C2 (centres undefined)	inconclusive: -31.2%
COc1ccc(/C=C2/C(=O)NC(=O)N(c3ccc(C)c(C)c3)C2=O)cc1CN1C(=O)c2ccccc2C1=O	inactive: -14.6%
CCOC(=O)c1c(NC(=O)c2c(N)n(CCCOC)c3nc4ccccc4nc23)sc2c1CCCC2	inconclusive: -35.3%
C/C(=N\N1CCCCCC1)c1c(O)n(-c2ccc(C)cc2)c(=O)[nH]c1=O	inconclusive: -40.9%
C=CCOC(=O)C1=C(C)OC(N)=C(C(=O)OCC)C12C(=O)N(CC(N)=O)c1ccccc12 (centres undefined)	inconclusive: -45.5%
COc1ccc(CCN(C)Cc2ccncc2)cc1OC	active: -91.5%

Compound	activity change (PNC), negative = inhibition
COc1ccc2c(c1)c(C(=O)O)c(C)n2CC(C)C	inactive: 27.9%
CC(=O)C1C(=O)NC23CCCCC2C1c1ccccc1O3 (centres undefined)	inactive: 24.1%
CC1=C(C(=O)Nc2ccccc2)SCCO1	active: -98%
Cc1cccc(-n2c(O)c(/C=C/C=Nc3ccccc3)c(=O)[nH]c2=O)c1	inactive: 31.2%
C=CCN(c1ccc(C(=O)N(CC)CC)cc1)S(C)(=O)=O	inactive: -23.2%
CC(=O)NC(Cc1ccc(N(CCCl)CCCl)cc1)C(=O)O (centres undefined)	inactive: 212%
COc1ccc(Cn2c(O)c(/C=N/NC(=O)c3ccccc3)c(=O)[nH]c2=O)cc1	inconclusive: -37.3%
CCN1CCN(C(=O)Cc2coc3ccc4ccccc4c23)CC1	inconclusive: -32.6%
CCOC(=O)c1c(-n2c(C)cc(C=C3C(=O)NC(=S)NC3=O)c2C)sc2c1CCCC2	inconclusive: -40.5%
Cc1ccc(N2C(=O)/C(=C/c3ccc(CN(CCC#N)S(C)(=O)=O)o3)C(=O)NC2=S)cc1C	inactive: 32.5%
C=CCN1C(=O)C2(C(C(=O)OCC)=C(N)Oc3ccccc32)c2c1c1ccccc1oc2=O (centres undefined)	inactive: -14.6%
CCCCn1c(O)c(C(CC)=NCCN2CCCCC2)c(=O)[nH]c1=O	active: -88.7%
Cc1c(C=O)c2ccccc2n1Cc1cccc(F)c1	inconclusive: -34.5%
O=Cc1cn(CCCOc2ccccc2)c2ccccc12	inactive: -17.3%
O=c1c2cc(Cl)cc(Cl)c2nc(CN2CCOCC2)n1-c1ccccc1F	inconclusive: -62.1%
CN(C)c1ccc(C=C(C#N)C#N)cc1	inconclusive: -52.7%
NS(=O)(=O)c1ccc(N=Cc2c(O)n(C3CCCCC3)c(=O)n(C3CCCCC3)c2=O)cc1	inactive: 18%
CCOC(=O)C1=C(C)OC(N)=C(C#N)C12C(=O)N(C)c1ccccc12 (centres undefined)	inactive: 63%
CCCCC(=O)N/N=C/c1c(O)n(CC)c(=S)[nH]c1=O	inactive: -10.2%
CSc1ncc(/C=C2/C(=O)NC(=O)N(C3CCCCC3)C2=O)cn1	inconclusive: -33.7%
